Measurements from PubChem BioAssay AID1671190 (National Center for Advancing Translational Sciences (NCATS), 2021).
Screen size: about 580,000 compounds; about 6,100 (1.1%) were called active. The shares of active, inactive and inconclusive entries below differ from those in the screen. Calls follow the shape of the dose curve; as a rule, active = well fitted inhibition curve with a large enough effect; inconclusive = small, poorly fitted or top-dose-only effect, or another doubt; inactive = no such curve, though single readings can be large or run the other way. Where the call is inconclusive, the potency comes from a doubtful curve fit.

Sequences of proteins named here, by UniProt entry; tags and fusion partners are left off. A change or cut given only in a name is not applied to a line headed by its entry.
UniProt P18054: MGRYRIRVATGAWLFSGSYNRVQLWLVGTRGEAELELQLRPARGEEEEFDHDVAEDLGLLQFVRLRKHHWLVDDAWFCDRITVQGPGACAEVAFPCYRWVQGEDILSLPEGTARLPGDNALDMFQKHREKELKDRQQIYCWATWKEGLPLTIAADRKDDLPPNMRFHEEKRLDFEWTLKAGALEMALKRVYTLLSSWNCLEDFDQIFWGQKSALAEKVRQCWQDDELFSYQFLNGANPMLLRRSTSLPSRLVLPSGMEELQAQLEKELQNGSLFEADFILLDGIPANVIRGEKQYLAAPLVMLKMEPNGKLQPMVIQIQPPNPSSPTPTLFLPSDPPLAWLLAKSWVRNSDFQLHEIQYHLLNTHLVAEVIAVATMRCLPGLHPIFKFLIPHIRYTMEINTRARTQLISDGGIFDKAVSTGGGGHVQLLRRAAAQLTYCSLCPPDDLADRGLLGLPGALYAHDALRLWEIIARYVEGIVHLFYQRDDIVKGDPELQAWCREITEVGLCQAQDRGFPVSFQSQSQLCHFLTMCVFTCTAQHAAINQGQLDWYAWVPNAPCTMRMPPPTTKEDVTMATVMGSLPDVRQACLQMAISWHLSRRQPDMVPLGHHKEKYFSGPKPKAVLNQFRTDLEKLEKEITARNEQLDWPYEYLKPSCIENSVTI

Target: Polyunsaturated fatty acid lipoxygenase ALOX12 (Homo sapiens) (UniProt P18054)
Test: Primary qHTS assay for inhibitors of human arachidonate 12S-lipoxygenase (ALOX12): Round 2
Settings: purified 12hLO, xylenol orange hydroperoxide absorbance; activity change, negative = inhibition: at 108 µM (top of the series) unless noted
Summary of the method: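 Hydroperoxide product was detected by ferrous iron/xylenol orange as the 573 to 405 nm absorbance ratio. Arachidonic acid at 40 uM (final) was turned over for 30 min at room temperature by 150 nM human 12hLO, pH 7.0 Hepes buffer, after 15 min compound preincubation.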
% is scaled to controls: 0 for no effect and ±100 for the full control effect; potency is read from the fitted curve at half-maximal effect.

Row | SMILES | activity change, negative = inhibition | Potency
1 | Cc1ccc(-c2nc3ccccc3s2)cc1 | inactive: 8.55% | –
2 | NS(=O)(=O)c1ccc(-c2ccc(/C=C3\C(=O)Nc4cc(Cl)ccc43)o2)cc1 | – | inconclusive: 63.1 µM [inhibitor, partial curve, poor fit]
3 | COc1ccc(NC(=O)CN(C)C(=O)CCCNC(=O)c2ccc(Cl)cc2)cc1 | – | inconclusive: 56.2 µM [inhibitor, partial curve, poor fit]
4 | CCc1cc(C(=O)Nc2cc(S(=O)(=O)N(CC)CC)ccc2N2CCOCC2)sc1C | – | inconclusive: 44.7 µM [inhibitor, partial curve, poor fit]
5 | COCCc1nncn1C1CCN(C(=O)c2cccc(Br)c2)CC1 | inactive: 17.7% | –
6 | Cc1[nH]c2ccccc2c1C(c1ccccn1)N1CCC(C(N)=O)CC1 (stereo not drawn) | – | inconclusive: 79.4 µM [inhibitor, partial curve, poor fit]
7 | Cc1nn(-c2ccccc2)c(Cl)c1CN(C(=O)CCl)c1ccc(Cl)cc1 | – | inconclusive: 56.2 µM [inhibitor, partial curve, poor fit]
8 | COc1ccc(N2C(=O)CC(N3CCN(S(=O)(=O)c4cc(C)ccc4C)CC3)C2=O)cc1 (stereo not drawn) | – | inconclusive: 50.1 µM [inhibitor, partial curve]
9 | Cc1ccc(NC(=S)NCc2ccccc2)cc1C | – | inconclusive: 79.4 µM [inhibitor, partial curve, poor fit]
10 | CC(/C=C1\SC(=S)N(CCC(=O)Nc2ccc(O)cc2)C1=O)=C\c1ccccc1 | inactive: -14.6% | –
11 | Cn1/c(=N/N=C/c2ccc(Cl)c([N+](=O)[O-])c2)sc2ccccc21 | – | inconclusive: 158 µM [inhibitor, partial curve, poor fit]
12 | CCC1CCc2sc(C(=O)NCc3csc(-c4ccccc4)n3)cc2C1 (stereo not drawn) | – | inconclusive: 50.1 µM [inhibitor, partial curve, poor fit]
13 | C#CCOCCOCCOCCNc1nc(N2CCOCC2)nc(N2CCN(C(=O)[C@H]([C@@H](C)CC)n3cc([C@@H](N)CC(C)C)nn3)CC2)n1 | – | inconclusive: 50.1 µM [inhibitor, partial curve, poor fit]
14 | C=C(C)Cn1c(N2CC(C)CC(C)C2)nc2c1c(=O)[nH]c(=O)n2C (stereo not drawn) | – | inconclusive: 100 µM [inhibitor, single point]
15 | O=C(Nc1ccc([C@@H](O)[C@H]2COCC(=O)N2CC2CC2)cc1)C1CCCC1 | inactive: 4.1% [at 176 µM] | –
16 | Cc1ccc(-n2c(C)n[nH]c2=S)cc1 | inactive: 0.337% | –
17 | Cn1nc([N+](=O)[O-])nc1Sc1ccc(Cl)cc1 | – | inconclusive: 17.8 µM [inhibitor, partial curve]
18 | CCOC(=O)/C=c1/s/c(=C\c2c(OC)ccc3ccccc23)c(=O)n1CC(=O)NCC1CCCO1 (stereo not drawn) | – | inconclusive: 112 µM [inhibitor, single point]
19 | Cc1ccc(C)c(NC(=O)c2ccc3c(c2)N(Cc2ccc(F)cc2)C(=O)CS3=O)c1 (stereo not drawn) | inactive: -34.4% | –
20 | Clc1ccc(-c2nc3sccn3c2C=NOCc2ccc(Cl)c(Cl)c2)cc1 | – | inconclusive: 2.43 µM [inhibitor, full curve, poor fit]
21 | Cc1ccc(-c2ccc(=O)n(Cc3cc(C)ccc3C)n2)cc1 | – | inconclusive: 100 µM [inhibitor, single point]
22 | O=C(O)c1ccc(OCc2ccc(C(=O)O)o2)cc1 | – | inconclusive: 3.55 µM [inhibitor, full curve, poor fit]
23 | Cc1ccc(-c2nc3cccnc3s2)cc1NC(=O)C(C)C | inactive: -8.71% | –

Some of these compounds in order of heavy-atom count, descending.
Row | SMILES | activity change, negative = inhibition | Potency
19 | Cc1ccc(C)c(NC(=O)c2ccc3c(c2)N(Cc2ccc(F)cc2)C(=O)CS3=O)c1 (stereo not drawn) | inactive: -34.4% | –
2 | NS(=O)(=O)c1ccc(-c2ccc(/C=C3\C(=O)Nc4cc(Cl)ccc43)o2)cc1 | – | inconclusive: 63.1 µM [inhibitor, partial curve, poor fit]
12 | CCC1CCc2sc(C(=O)NCc3csc(-c4ccccc4)n3)cc2C1 (stereo not drawn) | – | inconclusive: 50.1 µM [inhibitor, partial curve, poor fit]
5 | COCCc1nncn1C1CCN(C(=O)c2cccc(Br)c2)CC1 | inactive: 17.7% | –
9 | Cc1ccc(NC(=S)NCc2ccccc2)cc1C | – | inconclusive: 79.4 µM [inhibitor, partial curve, poor fit]

Following part.

Row | SMILES | activity change, negative = inhibition | Potency
24 | C=CCN1C(=O)C(Cc2ccc(OC)cc2)S/C1=N/N=C/c1ccco1 (stereo not drawn) | – | inconclusive: 50.1 µM [inhibitor, partial curve, poor fit]
25 | COC(=O)N/N=C/c1c[nH]c2ccccc12 | inactive: 32.3% | –
26 | CC1Nc2ncnc(N3CCc4ccccc4C3)c2N(Cc2ccccc2)C1=O (stereo not drawn) | – | inconclusive: 17.8 µM [inhibitor, full curve]
27 | COc1ccc(OC)c(NC(=O)c2cc(-c3cc(Cl)ccc3O)n[nH]2)c1 | inactive: 18.9% | –
28 | CCN1CCCC12Cc1ccccc1CN(C(=O)c1c(C)noc1C)C2 (stereo not drawn) | inactive: 0.98% [at 6.33 µM] | –
29 | CCOc1ccc(CN(CCOC)Cc2cc(=O)n3ccc(C)cc3n2)cc1 | – | inconclusive: 126 µM [inhibitor, single point]
30 | CN(C)CCNc1c([N+](=O)[O-])cnc2ccc(Br)cc12 | inactive: -28.8% | –
31 | COC(=O)C(Cc1c[nH]c2ccccc12)NC(=O)COc1ccc(Cl)cc1Cl (stereo not drawn) | – | inconclusive: 89.1 µM [inhibitor, partial curve, poor fit]
32 | c1ccc2c(c1)ncn2CCCCOc1ccc2c(c1)CCC2 | – | inconclusive: 44.7 µM [inhibitor, partial curve, poor fit]
33 | c1cnc(SCCOc2ccc3c(c2)CCC3)nc1 | inactive: 1.71% | –
34 | CCC(=O)N1CCN(c2nc3c(s2)CC(C(=O)NCC(C)C)CC3)CC1 (stereo not drawn) | – | inconclusive: 15.8 µM [inhibitor, full curve]
35 | COc1ccccc1Oc1ccc(S(=O)(=O)N2CCOCC2)cc1S(=O)(=O)N1CCOCC1 | inactive: -1.17% | –
36 | COc1ccc(C(=O)n2cnc3ccccc32)cc1 | – | inconclusive: 126 µM [inhibitor, single point]
37 | COc1ccc(Oc2c(C)oc3cc(OS(C)(=O)=O)ccc3c2=O)cc1 | inactive: -20.7% | –
38 | COC(=O)[C@@]1(Cc2ccccc2)[C@H]2C(=O)N(C)C(=O)[C@H]2[C@H]2CN=C(SCc3ccc(C)cc3)N21 | inactive: -31.2% | –
39 | Cc1ccc(C)c(N=C/C(C(=O)C(F)(F)F)=C(\O)c2cccs2)c1 | – | inconclusive: 28.2 µM [inhibitor, partial curve, poor fit]
40 | C=CCSc1ccccc1NS(=O)(=O)c1ccc(S(=O)(=O)N(CC)CC)cc1 | – | inconclusive: 31.6 µM [inhibitor, single point]
41 | C=CCn1c(SCC(=O)NCC(=O)OCC)nnc1-c1ccccn1 | – | inconclusive: 25.1 µM [inhibitor, partial curve, poor fit]
42 | COCCn1c(Br)nc2c1c(=O)n(C)c(=O)n2C | – | inactive
43 | O=C(NN=Cc1ccc2c(c1)CCN2)c1cccs1 | inactive: -21.7% | –
44 | Cc1cc(C)nc(N/C(=N\S(=O)(=O)Cc2ccccc2)Nc2ccccc2Br)n1 | inactive: -7.71% | –
45 | CCOC(=O)CCNC(=O)c1cc(F)ccc1Br | – | inconclusive: 100 µM [inhibitor, single point]
46 | Cc1cccc(Nc2nc(N)c(C(=O)c3ccc(Cl)cc3)s2)c1C | – | inconclusive: 44.7 µM [inhibitor, partial curve]

Row | SMILES | activity change, negative = inhibition | Potency
47 | COc1ccccc1N1CCCc2ncc(C(=O)NCc3cccc(Cl)c3)cc21 | inactive: 24% [at 176 µM] | –
48 | COCCNC(=O)c1c[nH]c2ccc(S(=O)(=O)N3CCc4ccccc43)cc2c1=O | – | inconclusive: 89.1 µM [inhibitor, partial curve, poor fit]
49 | Cn1c(SCC(=O)N2c3ccccc3Sc3ccccc32)nnc1-c1ccco1 | – | inconclusive: 89.1 µM [inhibitor, partial curve, poor fit]
50 | CCN(c1ccccc1)S(=O)(=O)c1ccc(OC)c(NC(=O)CN(C)C)c1 | inactive: -11.8% | –
51 | Cn1cccc1C1CCCN1CC(=O)Nc1c(Cl)cc(Cl)cc1Cl (stereo not drawn) | – | inconclusive: 17.8 µM [inhibitor, full curve, poor fit]
52 | COC(=O)c1ccc(CNC(=O)CNC(=O)c2sc3ccccc3c2Cl)cc1 | – | inconclusive: 44.7 µM [inhibitor, partial curve, poor fit]
53 | Cc1sc2nc(C(C)Sc3nnnn3C3CC3)[nH]c(=O)c2c1C (stereo not drawn) | – | inconclusive: 50.1 µM [inhibitor, single point]
54 | CCOC(=O)c1cc2oc(C(c3nnnn3C3CCCCC3)N3CCOCC3)cc2[nH]1 (stereo not drawn) | – | inconclusive: 10 µM [inhibitor, partial curve, poor fit]
55 | Cc1cccc(-n2c(SCC(=O)N3CC(=O)Nc4ccccc43)nc3ccccc3c2=O)c1C | – | inconclusive: 31.6 µM [inhibitor, partial curve]
56 | O=C(O)C1CCCCC1C(=O)Nc1ccc(S(=O)(=O)N2CCOCC2)cc1 (stereo not drawn) | inactive: 38.6% | –
57 | CC(=O)Nc1c(-c2cc(=O)oc3cc(C)c(Cl)cc23)oc2ccccc12 | inactive: 29.4% | –
58 | CCOC(=O)C(C#N)C(N)=O (stereo not drawn) | – | inconclusive: 2.82 µM [inhibitor, full curve, poor fit]
59 | Cc1ccc(-n2nc3c(c2NC(=O)c2ccc4c(c2)OCO4)CS(=O)(=O)C3)cc1C | – | inconclusive: 28.2 µM [inhibitor, partial curve, poor fit]
60 | CC(=O)N1CCn2c3c(c(=O)c4cc(C)ccc42)CCC31 (stereo not drawn) | – | inconclusive: 31.6 µM [inhibitor, partial curve, poor fit]
61 | CN(C)CCN(Cc1ccccc1F)C(=O)c1ccc(S(C)(=O)=O)cc1 | inactive: 21% | –
62 | COC(=O)c1c(-c2cccc(C)c2)csc1NC(=O)C1CCCO1 (stereo not drawn) | inactive: -23.9% | –
63 | COc1ccc(OCCCN2CCCCCC2)cc1 | – | inconclusive: 89.1 µM [inhibitor, partial curve, poor fit]
64 | O=C(O)c1ccc(CSc2n[nH]c(-c3ccco3)n2)cc1 | inactive: -21.2% | –
65 | CCN1CCN(c2oc(-c3ccco3)nc2C#N)CC1 | – | inconclusive: 28.2 µM [inhibitor, partial curve, poor fit]
66 | Cc1cc2nc(C3CCCCC3)c(Cc3cccc(F)c3)n2c(C)c1Br | – | inconclusive: 50.1 µM [inhibitor, partial curve, poor fit]
67 | COc1ccc(Cn2c(-c3ccccc3)nc(C)c(CCO)c2=O)cc1F | – | inconclusive: 79.4 µM [inhibitor, single point]
68 | C[C@H](CO)N1C[C@H](C)[C@@H](CN(C)C(=O)Nc2ccccc2)Oc2c(NC(=O)Nc3ccc(C(F)(F)F)cc3)cccc2C1=O | – | inconclusive: 100 µM [inhibitor, single point]
